Assay results published in PubChem BioAssay AID504467 (National Center for Advancing Translational Sciences (NCATS), 2011).
In all, about 330,000 compounds went through this assay and about 7,700 (2.3%) were called active. This list was built around the results that the source calls inconclusive (neither active nor inactive); the mix of calls is not that of the screen. Calls follow the shape of the dose curve; as a rule, active = well fitted inhibition curve with a large enough effect; inconclusive = small, poorly fitted or top-dose-only effect, or effect the other way; inactive = flat fitted curve, though single readings scatter. Where the call is inconclusive, the potency comes from a doubtful curve fit.

Experiment: qHTS screen for small molecules that inhibit ELG1-dependent DNA repair in human embryonic kidney (HEK293T) cells expressing luciferase-tagged ELG1; also: nearly all actives have a fitted effect of over 55% in size
Details: HEK293T ELG1-luciferase reporter, luminescence, 16 h, DNA damage induced by 5-fluorouridine; activity change, negative = inhibition: at 46.1 µM (top of the series)
Summary of the method: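 DMSO vehicle served as the neutral condition. Each well held 2,000 cells given 5-fluorouridine plus compound; after 16 hr at 37 °C/5% CO2, ONE-Glo was added and luciferase measured 30 min later.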
% is scaled to controls: 0 for no effect and ±100 for the full control effect; potency is read from the fitted curve at half-maximal effect.

Row | Structure (SMILES) | Potency | activity change, negative = inhibition
1 | COc1ccc(C(=O)Nc2ccc3ccccc3n2)cc1OC | inconclusive: 17.8 µM [activator, partial curve, poor fit] | –
2 | CCOC(=O)C1CCN(C(=O)COc2ccc(C(=O)c3ccccc3)cc2)CC1 | inconclusive: 20.6 µM [inhibitor, partial curve] | –
3 | O=C1CC(c2cc([N+](=O)[O-])ccc2Cl)c2c(ccc3ccccc23)N1 (stereo unspecified) | inconclusive: 29.1 µM [inhibitor, single point] | –
4 | Fc1cccc(F)c1-n1c(CN2CCCCC2)csc1=S | inconclusive: 16.4 µM [inhibitor, single point] | –
5 | Cc1ccc(NC(=O)c2ccc(S(=O)(=O)NCc3ccco3)cc2)nc1 | inconclusive: 11.6 µM [activator, single point] | –
6 | O=C(COc1ccc(Br)cc1)Nc1ccc(-c2nnc(-c3ccco3)o2)cc1 | inconclusive: 7.31 µM [activator, partial curve] | –
7 | Cc1cc(C)nc(SCC(=O)NN)n1 | – | inactive: -12.1%
8 | CC(C)(C)C(=O)NCC12C=CC(O1)C1C(=O)N(c3ccccc3)C(=O)C12 (stereo unspecified) | – | inactive: 9.1%
9 | CCOC(=O)CCn1c(=O)c2c(nc(Br)n2Cc2ccccc2)n(C)c1=O | inconclusive: 11.6 µM [inhibitor, partial curve] | –
10 | O=C(CSc1nnc(-c2ccco2)n1Cc1ccco1)Nc1ccccc1 | inconclusive: 10.3 µM [inhibitor, partial curve] | –
11 | CC(C)c1ccc(OCCCCCN2CCOCC2)cc1 | inconclusive: 18.3 µM [activator, single point] | –
12 | COC(=O)c1cc(NC(=O)C(C)c2ccc(CC(C)C)cc2)ccc1O (stereo unspecified) | inconclusive: 20.6 µM [inhibitor, partial curve] | –
13 | C=CCc1c(OC(C)=O)c2ccccc2n(C)c1=O | active: 3.26 µM | –
14 | CCOC(=O)Nc1sc2nc(C)cc(C)c2c1-n1cccc1 | inconclusive: 20.6 µM [inhibitor, single point] | –
15 | CCN(CC)S(=O)(=O)c1ccc(OC)nc1 | – | inactive: 2.3%
16 | CCOC(=O)c1ccc(NC(=O)CCc2nc(-c3ccccc3)no2)cc1 | active: 25.9 µM | –
17 | Cc1ccsc1C(=O)OCC(=O)c1ccc[nH]1 | inconclusive: 20.6 µM [activator, partial curve, poor fit] | –
18 | COc1ccc(NC(=O)C2Cc3cc(S(=O)(=O)N4CCCCC4)ccc3N2C(C)=O)cc1Cl (stereo unspecified) | – | inactive: -41.9%
19 | CCn1c(=O)c(C(=O)Nc2ccccc2)c(O)c2ccccc21 | – | inactive: 0%
20 | COc1cc(OC)cc(C(=O)O/N=C(\N)c2ccccn2)c1 | inconclusive: 9.2 µM [activator, partial curve] | –
21 | COc1cc(C#Cc2c(-c3cncn3C)n(C)c3ccc(-c4ccc(CN5CCOCC5)cc4)cc23)cc(OC)c1 | inconclusive: 18.3 µM [inhibitor, partial curve] | –
22 | CCCCOC(=O)C1=C(C)NC(=O)NC1c1ccc([N+](=O)[O-])s1 (stereo unspecified) | – | inactive: -12.9%
23 | COCCn1c(SCC(=O)N2CCCCC2)nc2ccccc2c1=O | – | inactive: 6.3%

Row | Structure (SMILES) | Potency | activity change, negative = inhibition
24 | COc1ccc(OC)c(CN2CCN(C(=O)CNC(=O)c3ccc(C(C)(C)C)cc3)CC2)c1 | inconclusive: 35.5 µM [inhibitor, single point] | –
25 | COc1ccccc1NC(=O)CN1CCN(Cc2ccccc2)CC1 | inconclusive: 17.8 µM [inhibitor, single point] | –
26 | Fc1ccccc1CSc1nnc(-c2ccccc2)o1 | inconclusive: 8.2 µM [activator, partial curve] | –
27 | COc1cc(C(=O)NCCOc2cccc3cccnc23)cc(OC)c1OC | active: 8.2 µM | –
28 | O=[N+]([O-])c1ccc(Nc2ccc(Cl)cc2)nc1 | – | inactive: 7.48%
29 | CCc1ccccc1Nc1nc(N)nc(CSCC(=O)c2cc(C)n(C)c2C)n1 | inconclusive: 29.1 µM [inhibitor, single point] | –
30 | CCCn1c(-c2cccc([N+](=O)[O-])c2)nc2c1c(=O)[nH]c(=O)n2Cc1ccccc1 | inconclusive: 25.9 µM [inhibitor, partial curve, poor fit] | –
31 | Cc1cc(C)c2cc(CN(Cc3nnnn3Cc3ccc(F)cc3)C3CCCC3)c(=O)[nH]c2c1 | – | inactive: 4.9%
32 | Cc1ccc(OCCSc2ncnc3nc[nH]c23)cc1 | inconclusive: 6.51 µM [activator, partial curve] | –
33 | O=C(C[n+]1cc(Br)cc2ccccc21)c1ccc(Cl)cc1 | – | inactive: 14.1%
34 | Cc1cccc(N(C(=O)c2snc(C(N)=O)c2N)C(C(=O)NCC2CCCO2)c2c[nH]c3ccccc23)c1 (stereo unspecified) | inconclusive: 25.9 µM [inhibitor, single point] | –
35 | COc1ccccc1C(=O)N1CCN(c2cccc(C(F)(F)F)c2)CC1 | inconclusive: 5.8 µM [inhibitor, full curve, poor fit] | –
36 | O=C1CN(C(=O)CSc2nnc(-c3ccccc3)n2Cc2ccc3c(c2)OCO3)c2ccccc2N1 | inconclusive: 16.4 µM [inhibitor, partial curve, poor fit] | –
37 | O=C(CSc1nncs1)Nc1nnc(-c2ccccc2)o1 | – | inactive: 16.2%
38 | O=C(Nc1ccccc1N1CCOCC1)c1ccc([N+](=O)[O-])cc1 | – | inactive: -3.74%
39 | Cc1ccc(OCC(=O)Nn2c(C)nc3ccccc3c2=O)c(C(C)C)c1 | inconclusive: 25.9 µM [inhibitor, single point] | –
40 | CC1CN(C(C)C(=O)NNC(=O)c2ccc(F)cc2)CC(C)O1 (stereo unspecified) | inconclusive: 14.6 µM [activator, partial curve] | –
41 | C=CCn1c(C)cc(C(=O)CN2NS(=O)(=O)c3ccccc3C2=O)c1C | inconclusive: 9.2 µM [activator, partial curve] | –
42 | CCc1cccc(CC)c1NC(=O)NC1CCCCC1 | – | inactive: 1.38%
43 | Cc1ccc(-c2c[n+](CC(=O)Nc3ccccc3C)c3n2CCC3)cc1 | – | inactive: 0.89%
44 | CCN(CC)S(=O)(=O)c1ccc(N2CCN(S(=O)(=O)c3ccc4c(c3)OCCO4)CC2)nc1 | active: 9.2 µM | –
45 | CC[C@@H]1Cc2cc(O)ccc2C2=C1c1ccc(O)cc1C[C@H]2CC | inconclusive: 35.5 µM [inhibitor, single point] | –
46 | O=S(=O)(c1ccc2nc(N3CCN(c4ccccc4F)CC3)ccc2c1)N1CCCCC1 | – | inactive: 0.403%

Quoted from the listing:
Fc1ccccc1CSc1nnc(-c2ccccc2)o1 – Potency: inconclusive: 8.2 µM [activator, partial curve]
Cc1cccc(N(C(=O)c2snc(C(N)=O)c2N)C(C(=O)NCC2CCCO2)c2c[nH]c3ccccc23)c1 (stereo unspecified) – Potency: inconclusive: 25.9 µM [inhibitor, single point]
Cc1ccc(OCCSc2ncnc3nc[nH]c23)cc1 – Potency: inconclusive: 6.51 µM [activator, partial curve]
COc1ccccc1NC(=O)CN1CCN(Cc2ccccc2)CC1 – Potency: inconclusive: 17.8 µM [inhibitor, single point]
